Data on one molecule can be found in publication PMC7949124, “Metallo-β-lactamase domain-containing protein 2 is S-palmitoylated and exhibits acyl-CoA hydrolase activity” (The Journal of Biological Chemistry, 2020).

The target in test [1] is T1, N-terminally FLAG-tagged MBLAC2(C254A), S-palmitoylation-deficient mutant (human) (UniProt Q68D91).
T1 sequence: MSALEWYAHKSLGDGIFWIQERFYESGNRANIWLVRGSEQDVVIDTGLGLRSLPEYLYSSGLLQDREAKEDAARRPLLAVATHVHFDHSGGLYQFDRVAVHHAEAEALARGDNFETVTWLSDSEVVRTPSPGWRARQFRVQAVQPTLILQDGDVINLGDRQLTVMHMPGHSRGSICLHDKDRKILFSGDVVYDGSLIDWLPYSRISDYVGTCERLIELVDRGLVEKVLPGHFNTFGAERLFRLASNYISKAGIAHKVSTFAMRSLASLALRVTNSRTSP
Description: co-IP; FLAG-MBLAC2 and zDHHC20-GFP constructs coexpressed in HEK-293 cells; lysis in 50 mM Tris pH 7.4, 200 mM NaCl, 1% DDM, 10% glycerol, 1 mM TCEP; cleared lysate on FLAG resin 4 h; eluted with 3X FLAG peptide; immunoblot with FLAG and GFP antibodies.

For test [2], the target named is T2, N-terminally FLAG-tagged MBLAC2 (metallo-β-lactamase domain-containing protein 2), wildtype (human) (UniProt Q68D91).
T2 sequence: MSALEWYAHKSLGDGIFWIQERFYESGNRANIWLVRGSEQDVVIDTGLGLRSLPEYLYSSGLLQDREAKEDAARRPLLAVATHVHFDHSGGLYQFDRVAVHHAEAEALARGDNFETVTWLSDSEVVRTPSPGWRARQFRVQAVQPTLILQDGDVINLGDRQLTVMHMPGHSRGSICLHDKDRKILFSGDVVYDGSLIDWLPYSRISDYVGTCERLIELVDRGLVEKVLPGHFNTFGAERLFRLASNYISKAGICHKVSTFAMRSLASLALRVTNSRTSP
The test is described as above.

These are yes or no findings as the source states them, for the method shown. In cells and extracts the contact can be indirect. Some entries that bind do so weakly or less than the wild type. Tags and fused reporters may be left off the sequences shown.

B1: C-terminally GFP-tagged zDHHC20 (enzyme, UniProt Q5W0Z9 1-365)
chain: MAPWTLWRCCQRVVGWVPVLFITFVVVWSYYAYVVELCVFTIFGNEENGKTVVYLVAFHLFFVMFVWSYWMTIFTSPASPSKEFYLSNSEKERYEKEFSQERQQEILRRAARALPIYTTSASKTIRYCEKCQLIKPDRAHHCSACDSCILKMDHHCPWVNNCVGFSNYKFFLLFLLYSLLYCLFVAATVLEYFIKFWTNELTDTRAKFHVLFLFFVSAMFFISVLSLFSYHCWLVGKNRTTIESFRAPTFSYGPDGNGFSLGCSKNWRQVFGDEKKYWLLPIFSSLGDGCSFPTRLVGMDPEQASVTNQNEYARSSGSNQPFPIKPLSESKNRLLDSESQWLENGAEEGIVKSGTNNHVTVAIEN
B1: the binding result in test [1] and in test [2] was “binds” each time.
